Literature values as cited in patent US20100016445A1, “TRANSDERMAL DIETHYLSTILBESTROL FOR TREATING PROSTATE CANCER” (Oregon Health and Science University, priority 2006, published 2010).
At least one structure is not confirmed: it was looked up by name or label, or the drawing left a doubt.

What was measured:
[1] = system: advanced hormone-naïve prostate cancer; conditions: 20 patients, median 10 months; cited from earlier work
[2] = men on conventional ADT; cited from earlier work
[3] = system: androgen-independent prostate cancer; conditions: cited from earlier work
[4] = Ockrim's study; cited from earlier work

Structure (SMILES): C[C@]12CC[C@@H]3c4ccc(O)cc4CC[C@H]3[C@@H]1CC[C@@H]2O [transdermal estradiol, estradiol]
- castrate testosterone levels and tumor responses [1]: all 20
- HDL cholesterol [2]: increased
- total cholesterol, LDL cholesterol, and apolipoprotein B [2]: significant decreases
- patients with PSA reduction >25% ([3]; 24 patients): 7 patients
- patients with confirmed PSA reduction >50% ([3]; 24 patients): Three of 24
- hot flashes ([3]; at 8 weeks of treatment): significant reduction
- bone mineral density (BMD) [4]: increased
